Taken from: PubChem BioAssay AID1259260 (Sanger Institute, 2017)

- Screen: 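Kinome knock-down with three anchor drugs to find synergy partners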 (primary screen)
- Cells: human NCI-H716 colorectal cancer cells
- Reagent: siRNA pool against human genes
- Conditions: anchor drugs BYL719 (alpelisib) 1 µM, cetuximab 5 µg/ml or trametinib 10 nM, each at a dose chosen to harm viability only mildly; DMSO vehicle for the knock-down-alone arm
- Measured: 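Replicate-averaged viability relative to a non-targeting pool, a robust z-score for knock-down alone, and a synergy score per anchor drug versus each agent alone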
- Direction: viability robust z-score, siRNA alone: higher = more surviving cells; below -3 called essential
- Active means: 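a knock-down counts as essential if its no-drug robust z-score is lower than -3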
- Calls: active = essential (knock-down alone lowers viability); inactive = no essential effect
Shown is one part, drawn at random, of 794 reagents tested. 13 of all reagents (1.6%) were called active. 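Calls reflect only knock-down without drug; synergy above 0.15 was grouped apart and does not change the call.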 Unmarked entries are inactive. Not all columns of the deposit are shown. No sequences are given here. Not given: the amount of reagent, the time to read-out.

Depletion of CEP290 (centrosomal protein 290) came out at: viability robust z-score, siRNA alone 0.602.
After knock-down of SRC (SRC proto-oncogene, non-receptor tyrosine kinase), the record shows viability robust z-score, siRNA alone 0.602.
EPHA8 (EPH receptor A8) gave viability robust z-score, siRNA alone -1.44.
UCK2 (uridine-cytidine kinase 2) showed viability robust z-score, siRNA alone 0.602.
For PRKX (protein kinase cAMP-dependent X-linked catalytic subunit), the entry reads viability robust z-score, siRNA alone 0.602.
Depletion of HK2 (hexokinase 2) gave: viability robust z-score, siRNA alone -1.5.
THNSL1 (threonine synthase like 1) gave viability robust z-score, siRNA alone 0.602.
Silencing of MECOM (MDS1 and EVI1 complex locus) came out at: viability robust z-score, siRNA alone 0.602.
PIK3CA showed viability robust z-score, siRNA alone 0.46.
TJP2 (tight junction protein 2) gave viability robust z-score, siRNA alone 0.602.
After knock-down of TCF12 (transcription factor 12), the screen gave viability robust z-score, siRNA alone 0.602.

3 successive entries from above:
SRC (SRC proto-oncogene, non-receptor tyrosine kinase) — viability robust z-score, siRNA alone = 0.602
EPHA8 (EPH receptor A8) — viability robust z-score, siRNA alone = -1.44
UCK2 (uridine-cytidine kinase 2) — viability robust z-score, siRNA alone = 0.602

The results go on.
ETNK2 (ethanolamine kinase 2) scored viability robust z-score, siRNA alone -0.317.
INSRR (insulin receptor related receptor) scored viability robust z-score, siRNA alone 0.602.
For PIM1 (Pim-1 proto-oncogene, serine/threonine kinase) the deposit lists viability robust z-score, siRNA alone 0.426.
RPS6KB2 (ribosomal protein S6 kinase B2) showed viability robust z-score, siRNA alone 0.602.
With knock-down of SMG1, the screen gave viability robust z-score, siRNA alone 0.602.
EFNA4 (ephrin A4) showed viability robust z-score, siRNA alone -0.694.
For RBKS (ribokinase), the values are viability robust z-score, siRNA alone 0.602.
For GRK4 (G protein-coupled receptor kinase 4), the entry reads viability robust z-score, siRNA alone 0.602.
With knock-down of ALK (ALK receptor tyrosine kinase), the screen gave viability robust z-score, siRNA alone 0.602.
Against SIK1 (salt inducible kinase 1), the values are viability robust z-score, siRNA alone 0.5.
With knock-down of CDK12 (cyclin dependent kinase 12), the record shows viability robust z-score, siRNA alone -0.438.
STK17A (serine/threonine kinase 17a) scored viability robust z-score, siRNA alone 0.602.
GALK1 (galactokinase 1) gave viability robust z-score, siRNA alone 0.129.
EIF2AK3 (eukaryotic translation initiation factor 2 alpha kinase 3) gave viability robust z-score, siRNA alone -1.06.
With knock-down of HUS1 (HUS1 checkpoint clamp component), the screen gave viability robust z-score, siRNA alone 0.602.
After knock-down of PIKFYVE (phosphoinositide kinase, FYVE-type zinc finger containing) the results were viability robust z-score, siRNA alone 0.602.
After knock-down of TRIO (trio Rho guanine nucleotide exchange factor), the screen gave viability robust z-score, siRNA alone -0.0906.
